The record followed here is US20240287484.

The exact form of at least one protein or probe is not confirmed. Tags and fusion partners may be left off the protein sequences shown.

Series [1] deals with T1, MG153-9 RT (uncultivated organism (metagenomic)).
T1 sequence: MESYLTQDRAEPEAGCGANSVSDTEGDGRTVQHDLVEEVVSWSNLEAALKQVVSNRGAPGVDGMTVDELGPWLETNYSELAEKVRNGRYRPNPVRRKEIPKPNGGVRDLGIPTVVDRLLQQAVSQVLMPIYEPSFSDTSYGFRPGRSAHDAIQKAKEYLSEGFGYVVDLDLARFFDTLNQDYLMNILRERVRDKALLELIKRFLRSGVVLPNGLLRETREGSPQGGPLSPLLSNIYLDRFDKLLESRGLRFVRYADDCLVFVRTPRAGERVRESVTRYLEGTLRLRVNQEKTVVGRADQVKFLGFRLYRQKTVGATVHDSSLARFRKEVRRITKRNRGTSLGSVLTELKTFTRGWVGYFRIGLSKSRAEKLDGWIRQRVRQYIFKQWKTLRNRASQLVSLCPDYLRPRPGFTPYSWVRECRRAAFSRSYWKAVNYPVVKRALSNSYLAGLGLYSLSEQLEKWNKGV
The series is described as follows: activity assay. Particulars: primer extension, 3 mM MgCl2, 37 C, protein translated in vitro, protein details: N-terminal Strep (PURExpress), DNA:RNA hybrid, only the site is given.

For series [2], the system named is T2, FH-MCP-MG153-53 RT (uncultivated organism (metagenomic)).
T2 sequence: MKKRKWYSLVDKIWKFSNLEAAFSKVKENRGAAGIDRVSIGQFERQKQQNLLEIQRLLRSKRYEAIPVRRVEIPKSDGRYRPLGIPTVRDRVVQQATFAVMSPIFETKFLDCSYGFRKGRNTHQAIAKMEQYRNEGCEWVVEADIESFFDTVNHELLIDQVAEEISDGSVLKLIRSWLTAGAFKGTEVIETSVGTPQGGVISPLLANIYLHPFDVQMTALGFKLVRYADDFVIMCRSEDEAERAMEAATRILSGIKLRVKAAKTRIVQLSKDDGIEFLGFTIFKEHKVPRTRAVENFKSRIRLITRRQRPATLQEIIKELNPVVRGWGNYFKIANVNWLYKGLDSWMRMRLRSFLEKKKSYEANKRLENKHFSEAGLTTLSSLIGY
The series is described as follows: activity in cells. Conditions: HEK293T, Taqman qPCR; protein in cells; protein details: N-terminal Flag-HA-MS2 coat protein; DNA:RNA hybrid. (Real-time PCR tracks product formation cycle by cycle.)

Series [3] relates to T3, FH-MCP-MG153-16 RT (uncultivated organism (metagenomic)).
T3 sequence: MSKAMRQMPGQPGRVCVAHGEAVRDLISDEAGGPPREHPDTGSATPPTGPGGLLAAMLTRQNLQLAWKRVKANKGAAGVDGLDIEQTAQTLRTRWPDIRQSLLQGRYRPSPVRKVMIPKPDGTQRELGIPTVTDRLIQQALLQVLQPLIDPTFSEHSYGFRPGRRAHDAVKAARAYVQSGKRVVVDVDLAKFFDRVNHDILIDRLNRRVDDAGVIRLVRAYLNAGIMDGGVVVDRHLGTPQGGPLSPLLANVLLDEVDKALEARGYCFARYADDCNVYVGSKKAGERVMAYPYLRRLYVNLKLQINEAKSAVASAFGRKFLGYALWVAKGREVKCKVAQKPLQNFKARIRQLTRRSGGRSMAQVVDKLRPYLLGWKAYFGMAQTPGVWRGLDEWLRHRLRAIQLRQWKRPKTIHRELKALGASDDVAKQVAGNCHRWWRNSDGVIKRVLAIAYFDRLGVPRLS
Put plainly: activity in cells. Particulars: HEK293T, PCR of cDNA; protein in cells; protein details: N-terminal Flag-HA-MS2 coat protein; DNA:RNA hybrid.

Series [4] relates to T4, FH-MCP-MG153-20 RT (uncultivated organism (metagenomic)).
T4 sequence: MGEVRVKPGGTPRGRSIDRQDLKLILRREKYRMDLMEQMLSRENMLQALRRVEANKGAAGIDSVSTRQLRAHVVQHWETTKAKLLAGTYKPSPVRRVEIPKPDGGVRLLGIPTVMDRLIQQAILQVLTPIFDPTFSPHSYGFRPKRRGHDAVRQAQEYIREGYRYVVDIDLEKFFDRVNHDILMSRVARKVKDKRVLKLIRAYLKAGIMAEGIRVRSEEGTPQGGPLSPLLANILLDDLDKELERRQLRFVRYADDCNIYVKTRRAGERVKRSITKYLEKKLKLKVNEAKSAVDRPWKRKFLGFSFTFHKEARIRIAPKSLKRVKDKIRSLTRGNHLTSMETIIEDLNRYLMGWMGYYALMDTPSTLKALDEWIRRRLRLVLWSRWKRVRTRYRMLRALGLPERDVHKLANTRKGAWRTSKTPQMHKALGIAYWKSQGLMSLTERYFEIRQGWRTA
The series is described as follows: activity in cells. Particulars: HEK293T, Taqman qPCR; protein in cells; protein details: N-terminal Flag-HA-MS2 coat protein; DNA:RNA hybrid.

Series [5] deals with T5, FH-MCP-MG153-4 RT (uncultivated organism (metagenomic)).
T5 sequence: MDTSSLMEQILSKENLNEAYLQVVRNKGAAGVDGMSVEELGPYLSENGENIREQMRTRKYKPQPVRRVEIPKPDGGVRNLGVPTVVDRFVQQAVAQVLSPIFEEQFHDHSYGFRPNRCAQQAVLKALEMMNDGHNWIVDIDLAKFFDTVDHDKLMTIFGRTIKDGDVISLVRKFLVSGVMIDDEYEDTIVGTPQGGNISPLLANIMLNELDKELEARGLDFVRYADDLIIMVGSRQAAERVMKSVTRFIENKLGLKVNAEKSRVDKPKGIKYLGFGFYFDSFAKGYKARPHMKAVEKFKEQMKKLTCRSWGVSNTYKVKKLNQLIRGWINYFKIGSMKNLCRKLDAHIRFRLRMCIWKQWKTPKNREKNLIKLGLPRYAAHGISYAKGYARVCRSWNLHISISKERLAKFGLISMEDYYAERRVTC
The series is described as follows: activity in cells. Conditions: HEK293T, Taqman qPCR; protein in cells; protein details: N-terminal Flag-HA-MS2 coat protein; DNA:RNA hybrid.

Series [6] deals with T6, FH-MCP-MG153-7 RT (uncultivated organism (metagenomic)).
T6 sequence: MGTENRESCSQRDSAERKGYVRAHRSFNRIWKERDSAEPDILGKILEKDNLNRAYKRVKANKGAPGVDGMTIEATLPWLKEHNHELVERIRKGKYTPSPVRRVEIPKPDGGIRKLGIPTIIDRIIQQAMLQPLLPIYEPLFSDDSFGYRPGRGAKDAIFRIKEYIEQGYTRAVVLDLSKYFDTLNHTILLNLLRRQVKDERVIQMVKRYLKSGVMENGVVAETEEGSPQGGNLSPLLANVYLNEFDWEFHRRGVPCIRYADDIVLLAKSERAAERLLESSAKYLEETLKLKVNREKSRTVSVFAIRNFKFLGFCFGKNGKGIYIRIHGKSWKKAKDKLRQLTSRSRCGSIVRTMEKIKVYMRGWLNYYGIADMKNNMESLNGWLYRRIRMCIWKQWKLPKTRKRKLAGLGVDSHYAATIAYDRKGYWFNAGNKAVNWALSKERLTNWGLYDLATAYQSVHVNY
The series is described as follows: activity in cells. Particulars: HEK293T, Taqman qPCR; protein in cells; protein details: N-terminal Flag-HA-MS2 coat protein; DNA:RNA hybrid.

In series [7] the test system is T7, FH-MCP-MG153-5 RT (uncultivated organism (metagenomic)).
T7 sequence: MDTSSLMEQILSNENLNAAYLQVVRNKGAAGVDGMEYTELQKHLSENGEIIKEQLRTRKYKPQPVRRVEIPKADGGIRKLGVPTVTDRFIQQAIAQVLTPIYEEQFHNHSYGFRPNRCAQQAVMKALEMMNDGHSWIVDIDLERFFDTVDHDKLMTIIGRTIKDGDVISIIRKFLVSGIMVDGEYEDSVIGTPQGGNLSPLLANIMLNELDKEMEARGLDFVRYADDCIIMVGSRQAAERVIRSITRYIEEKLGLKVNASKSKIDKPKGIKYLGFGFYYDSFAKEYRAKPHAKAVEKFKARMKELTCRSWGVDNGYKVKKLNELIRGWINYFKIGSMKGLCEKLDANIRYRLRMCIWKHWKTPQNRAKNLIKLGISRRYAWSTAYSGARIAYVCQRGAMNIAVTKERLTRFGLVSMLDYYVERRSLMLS
Put plainly: activity in cells. Particulars: HEK293T, Taqman qPCR; protein in cells; protein details: N-terminal Flag-HA-MS2 coat protein; DNA:RNA hybrid.

Series [8] concerns T8, FH-MCP-MG153-21 RT (uncultivated organism (metagenomic)).
T8 sequence: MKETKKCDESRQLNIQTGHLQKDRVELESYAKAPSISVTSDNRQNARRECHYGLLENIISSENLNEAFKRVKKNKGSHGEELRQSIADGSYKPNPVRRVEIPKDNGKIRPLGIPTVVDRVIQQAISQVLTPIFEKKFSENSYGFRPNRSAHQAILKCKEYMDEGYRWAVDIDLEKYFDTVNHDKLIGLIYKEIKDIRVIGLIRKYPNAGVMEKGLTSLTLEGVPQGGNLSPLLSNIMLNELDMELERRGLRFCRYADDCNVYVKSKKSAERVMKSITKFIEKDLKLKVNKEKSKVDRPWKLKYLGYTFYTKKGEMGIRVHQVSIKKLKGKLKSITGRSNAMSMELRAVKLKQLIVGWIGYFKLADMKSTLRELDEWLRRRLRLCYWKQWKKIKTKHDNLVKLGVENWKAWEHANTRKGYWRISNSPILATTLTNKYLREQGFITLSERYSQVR
Put plainly: activity in cells. Particulars: HEK293T, PCR of cDNA; protein in cells; protein details: N-terminal Flag-HA-MS2 coat protein; DNA:RNA hybrid.

For series [9], the system named is T9, FH-MCP-MG153-15 RT (uncultivated organism (metagenomic)).
T9 sequence: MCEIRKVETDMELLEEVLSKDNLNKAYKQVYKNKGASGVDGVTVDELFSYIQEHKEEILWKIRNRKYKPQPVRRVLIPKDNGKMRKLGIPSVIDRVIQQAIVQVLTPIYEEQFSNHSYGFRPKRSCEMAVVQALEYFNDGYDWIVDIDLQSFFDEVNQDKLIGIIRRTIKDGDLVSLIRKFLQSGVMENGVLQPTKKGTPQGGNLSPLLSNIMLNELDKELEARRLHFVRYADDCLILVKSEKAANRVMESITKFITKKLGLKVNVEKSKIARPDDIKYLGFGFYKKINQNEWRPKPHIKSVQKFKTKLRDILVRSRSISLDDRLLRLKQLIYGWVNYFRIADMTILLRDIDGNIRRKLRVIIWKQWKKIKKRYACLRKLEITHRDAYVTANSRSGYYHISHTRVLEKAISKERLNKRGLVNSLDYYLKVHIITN
Put plainly: activity in cells. Conditions: HEK293T, normalized to protein expression, protein details: N-terminal Flag-HA-MS2 coat protein, DNA:RNA hybrid.

Series [10] concerns T10, FH-MCP-MG153-18 RT (uncultivated organism (metagenomic)).
T10 sequence: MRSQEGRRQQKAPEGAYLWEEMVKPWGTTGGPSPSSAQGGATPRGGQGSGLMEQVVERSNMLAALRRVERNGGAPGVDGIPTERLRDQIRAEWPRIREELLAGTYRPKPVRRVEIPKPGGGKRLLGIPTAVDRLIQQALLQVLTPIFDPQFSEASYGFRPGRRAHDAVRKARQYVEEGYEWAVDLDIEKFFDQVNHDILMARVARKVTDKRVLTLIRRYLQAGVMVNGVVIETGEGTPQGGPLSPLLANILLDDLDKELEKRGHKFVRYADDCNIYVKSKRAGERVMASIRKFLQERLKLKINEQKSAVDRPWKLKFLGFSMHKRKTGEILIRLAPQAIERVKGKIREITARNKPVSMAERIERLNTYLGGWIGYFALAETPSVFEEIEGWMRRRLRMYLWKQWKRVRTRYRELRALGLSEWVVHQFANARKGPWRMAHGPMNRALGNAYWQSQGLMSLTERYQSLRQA
Put plainly: activity in cells. Particulars: HEK293T, Taqman qPCR; protein in cells; protein details: N-terminal Flag-HA-MS2 coat protein; DNA:RNA hybrid.

As to “AGACGGTCACAGCTTGTCTG [202 nt RNA template with PS primer 1]”, the “activity on this sequence” value in series [1] (5 PS bonds at 5' end of primer, label: 5'-FAM) was “active”.

Regarding “AGACGGTCACAGCTTGTCTG [202 nt RNA template with PS primer 3]”, the “activity on this sequence” value in [1] (PS A*G*A*C*G*GTCACAGCTT*G*T*C*TG, label: …) is listed as “active”.

Take “AGACGGTCACAGCTTGTCTG [202 nt RNA template with PS primer 2]”: the “activity on this sequence” value in series [1] (5 PS bonds at both 5' and 3' ends of primer, label: 5'-FAM) is reported as “active”.

Turning to “ATGGTATTTACTCTCGAAGACTTTGTCGGTGATTGGCGGCAAACTGCTGGGTATAATTTGGATCAGGTGCTGGAGCAAGGCGGCGTCAGCAGCCTGTTCCAAAACTTGGGAGTCTCAGTGACGCCAATTCAGCGGATCGTTCTTTCCGGGGAGAACGGATTGAAAATTGATATACACGTAATTATTCCATACGAGGGCCTCTCCGGTGATCAGATGGGTCAAATTGAGAAGATATTCAAAGTTGTTTATCCCGTAGACGACCACCATTTCAAAGTCATTCTCCATTACGGTACGTTAGTCATTGATGGCGTCACCCCTAATATGATAGATTACTTTGGCCGTCCCTACGAGGGAATTGCTGTGTTTGATGGGAAGAAAATTACAGTGACCGGAACTCTTTGGAATGGGAATAAGATCATTGATGAAAGACTTATAAATCCTGATGGGAGTCTCCTCTTTAGAGTGACAATTAATGGGGTAACAGGATGGAGACTCTGTGAGCGGATCTTGGCTTAGCCCAAACCCAAACCCAAACCTTTAGAGCTAGGCCAACATGAGGATTACCCATGTCTGCAGGGCCTAGCAAGTTAAAATAAGGCTAGTCCGTTATCAACTTGGCCAGGACTGAGGATTACCCAGTCTATCTGCAGGGCCAAGTAAAAAAAAAAGGAAGGGAAAAGGGG / GGTTTGGGTTTGGGTTTGGG [nanoluciferase mRNA annealed to DNA primer]”, the activity on this sequence (relative to TGIRT) in series [2], in series [4], in series [5], in series [6], in series [7] and in series [10] was over 1 throughout. Further, the “activity on this sequence” value in series [3] and in series [8] was “active” each time. In addition, in [9], the activity on this sequence (fold relative to TGIRT) amounted to 10.
